No constants are given. Whether binding was seen depends on the method and setting. Binding seen in cells or lysates may run through a third protein. A result given as binding can be weak or reduced; the word gives no strength.
Experiments:
GFP-NAC78 (A. thaliana) = GFP-NAC78 (A. thaliana) (UniProt Q84K00); test: co-IP
GFP-NAC53 (A. thaliana) = GFP-NAC53 (A. thaliana) (UniProt Q949N0); test: co-IP

Chains of the proteins cited; added tags and fusions are not shown. Lines headed by an entry give the natural chain unless they say otherwise; changes in a name come on top.
UniProt Q84K00: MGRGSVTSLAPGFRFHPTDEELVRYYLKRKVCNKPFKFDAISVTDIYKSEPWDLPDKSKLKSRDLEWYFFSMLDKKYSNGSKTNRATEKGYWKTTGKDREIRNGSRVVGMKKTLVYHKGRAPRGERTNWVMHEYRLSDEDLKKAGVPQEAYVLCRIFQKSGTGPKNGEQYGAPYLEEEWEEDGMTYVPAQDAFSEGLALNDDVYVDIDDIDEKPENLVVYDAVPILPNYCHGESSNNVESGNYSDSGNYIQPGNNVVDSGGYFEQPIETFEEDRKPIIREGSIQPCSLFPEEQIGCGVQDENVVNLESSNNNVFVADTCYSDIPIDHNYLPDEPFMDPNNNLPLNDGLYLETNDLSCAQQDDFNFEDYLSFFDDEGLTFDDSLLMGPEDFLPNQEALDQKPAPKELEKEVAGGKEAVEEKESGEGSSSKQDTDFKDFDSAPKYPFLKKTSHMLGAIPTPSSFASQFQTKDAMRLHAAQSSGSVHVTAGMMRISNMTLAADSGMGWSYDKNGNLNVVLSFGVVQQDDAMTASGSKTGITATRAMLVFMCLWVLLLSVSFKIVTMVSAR
UniProt Q949N0: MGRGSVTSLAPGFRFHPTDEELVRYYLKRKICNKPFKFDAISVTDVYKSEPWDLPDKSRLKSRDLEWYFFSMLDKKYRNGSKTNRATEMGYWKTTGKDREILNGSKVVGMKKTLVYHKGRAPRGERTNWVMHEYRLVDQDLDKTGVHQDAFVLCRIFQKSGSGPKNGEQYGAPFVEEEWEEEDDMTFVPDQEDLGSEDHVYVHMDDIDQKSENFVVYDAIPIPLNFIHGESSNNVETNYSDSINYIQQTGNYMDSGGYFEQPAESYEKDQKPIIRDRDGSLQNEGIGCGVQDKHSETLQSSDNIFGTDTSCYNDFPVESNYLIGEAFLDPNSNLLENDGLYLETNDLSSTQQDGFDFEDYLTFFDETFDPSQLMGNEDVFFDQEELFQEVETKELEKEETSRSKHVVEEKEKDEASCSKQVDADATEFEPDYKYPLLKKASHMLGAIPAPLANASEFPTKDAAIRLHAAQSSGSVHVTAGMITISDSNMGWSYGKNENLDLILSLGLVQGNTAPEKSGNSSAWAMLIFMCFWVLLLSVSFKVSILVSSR

B1: RFP-HRD1a (protein, UniProt Q9LW77 1-492)
chain: MIRLRTYAGLSFMATLAVIYHAFSSRGQFYPATVYLSTSKISLVLLLNMCLVLMLSLWHLVKFVFLGSLREAEVERLNEQAWRELMEILFAITIFRQDFSSGFLPLVVTLLLIKALHWLAQKRVEYIETTPSVSKLSHFRIVSFMGFLLLVDSLFMYSSIRHLIQSRQASVSLFFSFEYMILATTTVAIFVKYVFYVTDMLMDGQWEKKPVYTFYLELIRDLLHLSMYICFFFVIFMNYGVPLHLLRELYETFRNFQIRVSDYLRYRKITSNMNDRFPDATPEELTASDATCIICREEMTNAKKLICGHLFHVHCLRSWLERQQTCPTCRALVVPPENATSAAPGQRELHQGSQQGTSSSGNQGSEISSSAGVSNNSLSRHHARLQAAASAASVYGKSMVYPSANTVAWSSGVPGTEQVSTEPDQTLPQHNLPVENSHAYANMSETKLEEMRKSLETHLEILRNRLHFLETRKPESAGEPENKGKSVADAAE
- binding (GFP-NAC78 (A. thaliana)): binds
- binding (GFP-NAC53 (A. thaliana)): binds

Reference: doi:10.1101/2023.12.11.571118
